Measurements as given in the supplement of paper PMC10849652.
This is one part of the list.

By UniProt entry, the sequences of proteins in these tests, tags left out. Where a name states a change or a piece, a line headed by the entry shows the natural chain unless it says otherwise.
UniProt Q8TBQ9: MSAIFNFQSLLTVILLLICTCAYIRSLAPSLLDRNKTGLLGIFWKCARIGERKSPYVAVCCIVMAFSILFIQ
UniProt Q15363: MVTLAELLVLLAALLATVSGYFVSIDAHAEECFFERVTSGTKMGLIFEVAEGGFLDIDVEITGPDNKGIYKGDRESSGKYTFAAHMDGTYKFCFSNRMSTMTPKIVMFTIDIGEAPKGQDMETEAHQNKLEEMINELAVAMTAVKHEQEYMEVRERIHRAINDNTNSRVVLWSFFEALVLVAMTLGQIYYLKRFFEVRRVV
UniProt Q8TDI8: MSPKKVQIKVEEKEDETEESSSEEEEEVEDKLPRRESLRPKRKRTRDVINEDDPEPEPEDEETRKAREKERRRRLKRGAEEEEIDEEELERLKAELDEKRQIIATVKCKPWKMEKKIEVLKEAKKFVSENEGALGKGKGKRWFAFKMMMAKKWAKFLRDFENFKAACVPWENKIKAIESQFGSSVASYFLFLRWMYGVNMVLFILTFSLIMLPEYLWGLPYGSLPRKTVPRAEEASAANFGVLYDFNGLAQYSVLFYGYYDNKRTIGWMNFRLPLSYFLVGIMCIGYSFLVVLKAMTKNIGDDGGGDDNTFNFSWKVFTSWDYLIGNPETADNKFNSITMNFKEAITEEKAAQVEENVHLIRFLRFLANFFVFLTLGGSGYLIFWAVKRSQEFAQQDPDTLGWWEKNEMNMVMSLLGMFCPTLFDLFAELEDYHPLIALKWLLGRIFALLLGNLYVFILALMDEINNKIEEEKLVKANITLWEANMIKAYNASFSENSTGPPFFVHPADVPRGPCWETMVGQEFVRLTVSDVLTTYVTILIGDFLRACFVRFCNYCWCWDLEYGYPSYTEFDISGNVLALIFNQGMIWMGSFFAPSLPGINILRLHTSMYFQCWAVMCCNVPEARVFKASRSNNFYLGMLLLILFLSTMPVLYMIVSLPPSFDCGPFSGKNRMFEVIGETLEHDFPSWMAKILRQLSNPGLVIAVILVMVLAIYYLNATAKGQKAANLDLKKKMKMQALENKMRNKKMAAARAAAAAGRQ
UniProt Q9NX00: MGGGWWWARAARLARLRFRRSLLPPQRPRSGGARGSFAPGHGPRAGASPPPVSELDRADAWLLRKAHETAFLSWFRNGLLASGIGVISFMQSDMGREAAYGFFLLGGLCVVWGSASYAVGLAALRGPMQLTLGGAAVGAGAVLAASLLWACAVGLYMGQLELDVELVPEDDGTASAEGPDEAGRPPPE
UniProt Q9Y2S6, whole entry, looked up: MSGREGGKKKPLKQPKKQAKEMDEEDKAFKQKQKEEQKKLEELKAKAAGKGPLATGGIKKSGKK
UniProt Q96MH6: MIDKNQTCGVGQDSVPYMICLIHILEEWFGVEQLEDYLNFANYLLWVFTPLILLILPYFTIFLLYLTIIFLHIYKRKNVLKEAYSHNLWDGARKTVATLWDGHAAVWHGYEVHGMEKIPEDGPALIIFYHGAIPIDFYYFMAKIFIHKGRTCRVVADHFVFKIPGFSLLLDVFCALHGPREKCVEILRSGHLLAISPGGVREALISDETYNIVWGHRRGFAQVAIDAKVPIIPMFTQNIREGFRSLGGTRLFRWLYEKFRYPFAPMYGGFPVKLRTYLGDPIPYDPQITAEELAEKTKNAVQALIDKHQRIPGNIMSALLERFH
UniProt Q0P6H9: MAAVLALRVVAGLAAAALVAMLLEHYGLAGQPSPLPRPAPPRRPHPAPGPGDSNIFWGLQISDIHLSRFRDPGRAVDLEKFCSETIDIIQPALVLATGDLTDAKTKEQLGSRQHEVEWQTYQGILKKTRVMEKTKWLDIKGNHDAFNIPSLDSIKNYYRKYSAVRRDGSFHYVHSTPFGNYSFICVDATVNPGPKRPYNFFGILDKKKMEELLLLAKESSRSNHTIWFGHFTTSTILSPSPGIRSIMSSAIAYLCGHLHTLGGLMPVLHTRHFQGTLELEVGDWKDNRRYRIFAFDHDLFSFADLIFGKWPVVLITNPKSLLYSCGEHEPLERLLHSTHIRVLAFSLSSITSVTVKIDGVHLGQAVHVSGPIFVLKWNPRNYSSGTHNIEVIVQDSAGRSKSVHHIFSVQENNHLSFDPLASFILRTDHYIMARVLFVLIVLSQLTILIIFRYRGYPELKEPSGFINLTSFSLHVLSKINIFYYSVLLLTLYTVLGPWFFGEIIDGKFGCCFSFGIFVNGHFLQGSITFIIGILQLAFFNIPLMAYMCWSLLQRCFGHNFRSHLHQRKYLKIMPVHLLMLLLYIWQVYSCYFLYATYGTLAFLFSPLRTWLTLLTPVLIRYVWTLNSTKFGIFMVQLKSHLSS
UniProt Q5BJF2, whole entry, looked up: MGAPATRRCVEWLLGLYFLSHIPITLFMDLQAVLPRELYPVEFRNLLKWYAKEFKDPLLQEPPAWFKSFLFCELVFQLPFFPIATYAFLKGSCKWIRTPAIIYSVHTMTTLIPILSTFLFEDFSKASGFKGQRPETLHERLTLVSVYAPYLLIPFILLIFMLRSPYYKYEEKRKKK
UniProt Q9H7F4: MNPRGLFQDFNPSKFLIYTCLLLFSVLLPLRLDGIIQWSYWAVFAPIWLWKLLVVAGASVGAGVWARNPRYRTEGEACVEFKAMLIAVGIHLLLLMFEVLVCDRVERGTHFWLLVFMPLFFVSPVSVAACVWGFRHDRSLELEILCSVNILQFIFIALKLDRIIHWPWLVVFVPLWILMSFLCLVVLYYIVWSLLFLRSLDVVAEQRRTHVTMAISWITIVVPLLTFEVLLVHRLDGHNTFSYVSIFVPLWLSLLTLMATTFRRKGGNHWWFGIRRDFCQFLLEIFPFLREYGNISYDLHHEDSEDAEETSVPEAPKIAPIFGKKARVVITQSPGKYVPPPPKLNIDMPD
UniProt Q96SK2: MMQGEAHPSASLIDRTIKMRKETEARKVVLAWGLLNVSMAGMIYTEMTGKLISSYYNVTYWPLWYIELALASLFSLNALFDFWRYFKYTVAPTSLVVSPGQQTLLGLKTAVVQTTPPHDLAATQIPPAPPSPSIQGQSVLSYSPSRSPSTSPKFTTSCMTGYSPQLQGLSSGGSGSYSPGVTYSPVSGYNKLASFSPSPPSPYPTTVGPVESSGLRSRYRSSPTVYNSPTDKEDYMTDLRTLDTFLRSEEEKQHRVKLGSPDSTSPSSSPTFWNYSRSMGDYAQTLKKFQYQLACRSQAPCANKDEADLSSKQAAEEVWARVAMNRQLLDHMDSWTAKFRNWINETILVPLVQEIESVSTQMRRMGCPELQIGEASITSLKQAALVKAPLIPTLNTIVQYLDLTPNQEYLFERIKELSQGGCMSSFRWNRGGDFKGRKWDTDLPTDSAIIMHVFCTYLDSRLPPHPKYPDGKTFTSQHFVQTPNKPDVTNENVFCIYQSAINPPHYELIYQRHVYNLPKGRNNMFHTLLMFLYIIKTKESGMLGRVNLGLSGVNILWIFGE
UniProt O94886: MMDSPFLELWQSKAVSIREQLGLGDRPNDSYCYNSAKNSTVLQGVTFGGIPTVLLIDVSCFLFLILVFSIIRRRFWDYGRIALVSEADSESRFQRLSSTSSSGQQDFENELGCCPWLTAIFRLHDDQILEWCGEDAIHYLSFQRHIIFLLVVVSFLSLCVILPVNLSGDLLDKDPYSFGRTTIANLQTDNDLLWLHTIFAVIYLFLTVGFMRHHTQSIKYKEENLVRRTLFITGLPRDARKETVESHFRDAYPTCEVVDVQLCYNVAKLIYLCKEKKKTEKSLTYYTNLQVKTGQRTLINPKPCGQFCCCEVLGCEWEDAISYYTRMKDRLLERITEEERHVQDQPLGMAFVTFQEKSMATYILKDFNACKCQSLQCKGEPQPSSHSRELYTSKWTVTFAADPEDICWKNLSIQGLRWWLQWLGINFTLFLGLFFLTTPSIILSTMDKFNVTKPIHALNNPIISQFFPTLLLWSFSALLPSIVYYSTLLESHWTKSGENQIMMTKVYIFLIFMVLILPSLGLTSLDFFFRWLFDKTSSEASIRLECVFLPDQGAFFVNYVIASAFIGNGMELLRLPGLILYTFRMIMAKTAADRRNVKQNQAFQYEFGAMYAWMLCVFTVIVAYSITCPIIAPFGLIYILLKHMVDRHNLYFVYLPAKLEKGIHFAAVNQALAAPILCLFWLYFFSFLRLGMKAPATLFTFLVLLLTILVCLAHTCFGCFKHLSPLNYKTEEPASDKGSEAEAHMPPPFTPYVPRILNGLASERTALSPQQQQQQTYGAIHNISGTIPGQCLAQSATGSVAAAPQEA
UniProt Q9H3N1: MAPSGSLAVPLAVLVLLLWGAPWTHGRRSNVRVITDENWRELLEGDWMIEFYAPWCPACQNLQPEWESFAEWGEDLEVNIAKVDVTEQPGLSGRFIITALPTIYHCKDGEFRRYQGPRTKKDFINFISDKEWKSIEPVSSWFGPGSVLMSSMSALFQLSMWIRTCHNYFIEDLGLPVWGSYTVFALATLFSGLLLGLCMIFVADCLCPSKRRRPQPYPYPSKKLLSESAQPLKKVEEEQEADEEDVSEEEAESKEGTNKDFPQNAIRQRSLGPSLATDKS
UniProt Q8NBN3: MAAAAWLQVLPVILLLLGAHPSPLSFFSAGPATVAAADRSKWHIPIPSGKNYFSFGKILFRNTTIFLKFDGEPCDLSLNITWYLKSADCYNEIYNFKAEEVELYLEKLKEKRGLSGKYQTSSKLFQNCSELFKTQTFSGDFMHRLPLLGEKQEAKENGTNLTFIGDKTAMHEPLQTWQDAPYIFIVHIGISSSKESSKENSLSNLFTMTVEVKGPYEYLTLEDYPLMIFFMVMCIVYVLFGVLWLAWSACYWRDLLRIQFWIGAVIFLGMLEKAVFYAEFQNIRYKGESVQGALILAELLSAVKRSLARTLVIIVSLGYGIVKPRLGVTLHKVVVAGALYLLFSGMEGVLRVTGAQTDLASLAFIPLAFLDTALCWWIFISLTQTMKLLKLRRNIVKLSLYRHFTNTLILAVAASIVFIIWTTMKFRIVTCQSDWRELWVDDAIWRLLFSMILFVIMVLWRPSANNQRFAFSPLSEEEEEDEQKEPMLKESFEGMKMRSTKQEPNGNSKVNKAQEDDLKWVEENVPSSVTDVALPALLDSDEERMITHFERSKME
UniProt P42167: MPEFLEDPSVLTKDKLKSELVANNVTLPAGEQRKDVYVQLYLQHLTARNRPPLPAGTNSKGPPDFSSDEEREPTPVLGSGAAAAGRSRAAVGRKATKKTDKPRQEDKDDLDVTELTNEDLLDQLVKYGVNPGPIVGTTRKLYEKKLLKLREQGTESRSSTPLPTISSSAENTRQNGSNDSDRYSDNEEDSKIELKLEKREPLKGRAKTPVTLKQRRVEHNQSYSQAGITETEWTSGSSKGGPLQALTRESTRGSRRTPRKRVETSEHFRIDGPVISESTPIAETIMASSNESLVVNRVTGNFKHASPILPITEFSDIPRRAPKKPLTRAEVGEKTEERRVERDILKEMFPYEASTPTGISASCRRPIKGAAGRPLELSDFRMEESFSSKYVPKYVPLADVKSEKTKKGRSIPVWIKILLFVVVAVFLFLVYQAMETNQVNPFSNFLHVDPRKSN
UniProt P63313: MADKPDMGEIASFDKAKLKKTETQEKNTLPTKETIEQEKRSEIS
UniProt Q6PI78: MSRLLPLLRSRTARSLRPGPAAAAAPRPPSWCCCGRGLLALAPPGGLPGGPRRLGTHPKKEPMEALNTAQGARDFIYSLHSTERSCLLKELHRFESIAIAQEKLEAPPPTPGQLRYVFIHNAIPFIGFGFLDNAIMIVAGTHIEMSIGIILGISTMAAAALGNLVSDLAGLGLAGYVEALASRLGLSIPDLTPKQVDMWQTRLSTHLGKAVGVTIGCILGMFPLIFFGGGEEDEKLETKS
UniProt Q9NVH6: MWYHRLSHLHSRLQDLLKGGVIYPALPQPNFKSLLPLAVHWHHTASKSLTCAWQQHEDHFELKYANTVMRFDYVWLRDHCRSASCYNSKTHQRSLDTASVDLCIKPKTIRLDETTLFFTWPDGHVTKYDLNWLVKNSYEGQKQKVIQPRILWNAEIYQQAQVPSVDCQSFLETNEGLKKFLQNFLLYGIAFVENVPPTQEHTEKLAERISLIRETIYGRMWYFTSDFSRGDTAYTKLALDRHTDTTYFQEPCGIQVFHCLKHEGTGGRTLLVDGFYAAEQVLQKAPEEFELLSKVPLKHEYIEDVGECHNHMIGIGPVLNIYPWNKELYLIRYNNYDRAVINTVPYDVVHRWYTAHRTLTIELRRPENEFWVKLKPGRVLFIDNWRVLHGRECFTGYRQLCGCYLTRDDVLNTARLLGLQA
UniProt P17152: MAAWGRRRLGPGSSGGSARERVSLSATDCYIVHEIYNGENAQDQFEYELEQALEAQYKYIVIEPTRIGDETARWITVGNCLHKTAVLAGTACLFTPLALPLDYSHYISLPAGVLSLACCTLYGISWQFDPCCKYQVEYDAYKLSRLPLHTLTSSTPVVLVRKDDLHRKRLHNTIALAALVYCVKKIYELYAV
UniProt P49755: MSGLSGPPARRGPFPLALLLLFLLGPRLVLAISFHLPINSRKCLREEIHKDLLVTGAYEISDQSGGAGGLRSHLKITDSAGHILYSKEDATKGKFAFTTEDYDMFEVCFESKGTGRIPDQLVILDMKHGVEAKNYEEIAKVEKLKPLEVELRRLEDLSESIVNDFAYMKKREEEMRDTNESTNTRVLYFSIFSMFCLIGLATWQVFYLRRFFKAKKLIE

These targets were tested with CC[C@H](C)N1C=C(C2=C(C=C(C=C21)C3=CN=C(C=C3)N4CCNCC4)C(=O)NCC5=C(C=C(NC5=O)C)C)C (assay: log2 fold change, soluble protein after heating vs DMSO (PISA); higher = thermal stabilisation; K562 cells, 10 uM, 30 min; active = over 0.2 and 3.5 SD of the protein, either way, in both replicates (recomputed)).
Summary of the method: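 For each measurement, 10 μM compound was applied for 30 min to K562 cells at 2×10^6 cells/mL. Aliquots were heated for 3 min across 48°C-58°C, pooled, and extracted in PBS with 0.5% NP-40 at 4°C; the supernatant after 21,000xg for 90 min was soluble protein. This was quantified by TMTpro 16plex LC-MS/MS with channel sums equalised, and thermal stability was reported relative to control samples from duplicates, on a log2 fold-change scale.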

log2 fold change, inactive:
TM9SF3 (UniProt Q9HD45) -0.015
TMA16 (UniProt Q96EY4) 0.03
TMEM167A (UniProt Q8TBQ9) -0.101
TMED2 (UniProt Q15363) -0.014
TMC1 (UniProt Q8TDI8) -0.32
TMEM115 (UniProt Q12893) -0.076
TMEM160 (UniProt Q9NX00) -0.058
TMCO1 (UniProt Q9UM00) -0.024
TLN1 (UniProt Q9Y490) 0.047
TMA7 (UniProt Q9Y2S6) -0.069
TMX4 (UniProt Q9H1E5) -0.028
TMED1 (UniProt Q13445) -0.042
TMEM245 (UniProt Q9H330) -0.062
TMEM68 (UniProt Q96MH6) 0.012
TMEM199 (UniProt Q8N511) -0.018
TMEM62 (UniProt Q0P6H9) -0.04
TMEM97 (UniProt Q5BJF2) -0.067
TMEM185B (UniProt Q9H7F4) -0.061
TMEM209 (UniProt Q96SK2) 0.094
TMEM63A (UniProt O94886) -0.064
TMEM41B (UniProt Q5BJD5) -0.061
TMX1 (UniProt Q9H3N1) -0.004
TMED3 (UniProt Q9Y3Q3) -0.086
TM2D3 (UniProt Q9BRN9) -0.141
TMEM87A (UniProt Q8NBN3) -0.027
TMPO (UniProt P42167) -0.015
TMSB10 (UniProt P63313) -0.052
TMEM33 (UniProt P57088) -0.031
TMEM65 (UniProt Q6PI78) 0.013
TMED4 (UniProt Q7Z7H5) -0.033
TMLHE isoform 8 (UniProt Q9NVH6) 0.062
TMEM11 (UniProt P17152) 0.005
TMOD1 (UniProt P28289) 0.054
TMOD2 (UniProt Q9NZR1) -0.055
TMEM189 (UniProt A5PLL7) -0.07
TMED10 (UniProt P49755) 0.006
TMUB1 (UniProt Q9BVT8) -0.047
TMOD3 (UniProt Q9NYL9) 0.045

For reference, part of the list above:
log2 fold change, inactive:
TMEM65 (UniProt Q6PI78) 0.013
TMED4 (UniProt Q7Z7H5) -0.033
